Assay in all cases: cleaved PARP positive nuclei fraction relative to DMSO control; melanoma cells; higher = more apoptosis
Conditions in all cases: library dose: low library concentration; 72 h

Assay [1] deals with WM115.
The subject of assay [2] is WM1716.
Assay [3] relates to WM1745.
Assay [4] concerns WM3526.
The test system of assay [5] is WM3619.
Assay [6] has as its system WM451Lu.

The list shows a part of the results. Repeats are few or missing, and single values can be far off.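 Cells were imaged in 1,536-well plates, and nuclei stained with an antibody against cleaved PARP were counted against all DNA-stained nuclei to give the apoptosis fraction. Screening doses were chosen to leave most cells alive, and resting and induced cleaved-PARP levels differ strongly between cell lines.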

Consider `C[C@]1(O)C[C@@H](c2nc(-c3ccc4ccc(-c5ccccc5)nc4c3)c3c(N)nccn32)C1` + CN(C)S(=O)(=O)c1ccc2c(c1)/C(=C/c1cc3c([nH]1)CCCC3)C(=O)N2 [SU6656] (first compound 0.4 µM, partner dose 0.4 µM), for which the “cleaved PARP positive nuclei fraction” value in assay [1] was found to be 276%; in assay [2], 55%; in assay [3], 155%; in assay [4], 151%; in assay [5], 95.5%; in assay [6], 194%.
`CN(c1ncccc1CNc1nc(Nc2ccc3c(c2)CC(=O)N3)ncc1C(F)(F)F)S(C)(=O)=O` + Nc1cccc2c1CN(C1CCC(=O)NC1=O)C2=O [lenalidomide] (first compound 0.08 µM, partner dose 1 µM): the “cleaved PARP positive nuclei fraction” value in assay [1] worked out at 149%; in assay [2], 304%; in assay [3] it was 138%; in assay [4], 60.5%; in assay [5], 89.3%; in assay [6], 204%.
For the molecule `C[C@]1(O)C[C@@H](c2nc(-c3ccc4ccc(-c5ccccc5)nc4c3)c3c(N)nccn32)C1` + O=C(Nc1ccccc1)c1cc([N+](=O)[O-])ccc1Cl [GW9662] (first compound 0.4 µM, partner dose 2 µM), the “cleaved PARP positive nuclei fraction” value in assay [1] is 175%; in assay [2] it was 179%; in assay [3], 121%; in assay [4], 79.7%; in assay [5], 107%; in assay [6] it was 55.8%.
In the case of `COc1ccc(C2=N[C@@H](c3ccc(Cl)cc3)[C@@H](c3ccc(Cl)cc3)N2C(=O)N2CCNC(=O)C2)c(OC(C)C)c1` [Nutlin-3] + O=C(CCCCCCC(=O)Nc1ccccc1)NO [vorinostat] (first compound 0.1 µM, partner dose 0.08 µM), the “cleaved PARP positive nuclei fraction” value was 44.1% in assay [1]; 100% in assay [2]; 81.4% in assay [3]; 56.2% in assay [4]; 95.6% in assay [5]; 133% in assay [6].
For `NC(=O)c1ccc(N(C(N)=O)c2c(F)cccc2F)nc1-c1ccc(F)cc1F` + CNC(=O)c1cc(Oc2ccc(NC(=O)Nc3ccc(Cl)c(C(F)(F)F)c3)cc2)ccn1 [sorafenib] (first compound 0.4 µM, partner dose 0.4 µM), the “cleaved PARP positive nuclei fraction” value turned out to be 66.6% in assay [1]; 58.9% in assay [2]; 99.7% in assay [3]; 92% in assay [4]; 111% in assay [5]; 188% in assay [6].
For `C[C@]1(O)C[C@@H](c2nc(-c3ccc4ccc(-c5ccccc5)nc4c3)c3c(N)nccn32)C1` + CCN(CC)CCCCNc1ncc2cc(-c3cc(OC)cc(OC)c3)c(NC(=O)NC(C)(C)C)nc2n1 [PD173074] (first compound 0.4 µM, partner dose 0.1 µM), the “cleaved PARP positive nuclei fraction” value in assay [1] amounted to 121%; in assay [2] it was 182%; in assay [3], 114%; in assay [4], 141%; in assay [5], 89.5%; in assay [6], 137%.
As for `CC1(C)CCC(c2ccc(Cl)cc2)=C(CN2CCN(c3ccc(C(=O)NS(=O)(=O)c4ccc(N[C@H](CCN5CCOCC5)CSc5ccccc5)c(S(=O)(=O)C(F)(F)F)c4)cc3)CC2)C1` + CC(C)C[C@H](NC(=O)[C@H](Cc1ccccc1)NC(=O)c1cnccn1)B(O)O [Bortezomib] (first compound 0.4 µM, partner dose 0.001 µM), the “cleaved PARP positive nuclei fraction” value in assay [1] was 371%; in assay [2] it was 1660%; in assay [3], 2000%; in assay [4], 146%; in assay [5] it was 922%; in assay [6], 153%.
In the case of `COc1ccc(C2=N[C@@H](c3ccc(Cl)cc3)[C@@H](c3ccc(Cl)cc3)N2C(=O)N2CCNC(=O)C2)c(OC(C)C)c1` [Nutlin-3] + C[C@@H](Oc1cc(-c2cnn(C3CCNCC3)c2)cnc1N)c1c(Cl)ccc(F)c1Cl [Crizotinib] (first compound 0.1 µM, partner dose 0.2 µM), the “cleaved PARP positive nuclei fraction” value in assay [1] was 58.9%; in assay [2], 20%; in assay [3] it was 109%; in assay [4], 101%; in assay [5] it was 93.9%; in assay [6], 166%.
With `Cn1cnc2c(F)c(Nc3ccc(Br)cc3Cl)c(C(=O)NOCCO)cc21` [selumetinib] + COc1ccc(COc2ccc(Cc3cnc(N)nc3N)cc2OC)cc1 [GW2580] (first compound 0.015 µM, partner dose 1 µM), the “cleaved PARP positive nuclei fraction” value stood at 119% in assay [1]; 55.9% in assay [2]; 85.9% in assay [3]; 81.9% in assay [4]; 104% in assay [5]; 41.4% in assay [6].
Take `NC(=O)c1ccc(N(C(N)=O)c2c(F)cccc2F)nc1-c1ccc(F)cc1F` + Oc1nc(-c2ccc(C(F)(F)F)cc2)nc2c1CSCC2 [XAV939] (first compound 0.4 µM, partner dose 2 µM): the “cleaved PARP positive nuclei fraction” value worked out at 165% in assay [1]; 73% in assay [2]; 101% in assay [3]; 295% in assay [4]; 93.3% in assay [5]; 78.6% in assay [6].
For the molecule `Cn1sc(=O)n(Cc2ccccc2)c1=O` + C=C(c1ccc(C(=O)O)cc1)c1cc2c(cc1C)C(C)(C)CCC2(C)C [Bexarotene] (first compound 0.4 µM, partner dose 2 µM), the “cleaved PARP positive nuclei fraction” value is 37.7% in assay [1]; 71% in assay [2]; 86.6% in assay [3]; 82.3% in assay [4]; 93.6% in assay [5]; 98% in assay [6].
For `CCN(CC)CCNC(=O)c1c(C)[nH]c(/C=C2\C(=O)Nc3ccc(F)cc32)c1C` [sunitinib] + Oc1nc(-c2ccc(C(F)(F)F)cc2)nc2c1CSCC2 [XAV939] (first compound 0.4 µM, partner dose 2 µM), the “cleaved PARP positive nuclei fraction” value amounted to 68.7% in assay [1]; 104% in assay [2]; 131% in assay [3]; 198% in assay [4]; 93.8% in assay [5]; 49.4% in assay [6].
